The target of the assay is T1, P2X3 receptor (mouse (endogenous in trigeminal ganglion neurons)) (UniProt Q3UR32).
T1 sequence: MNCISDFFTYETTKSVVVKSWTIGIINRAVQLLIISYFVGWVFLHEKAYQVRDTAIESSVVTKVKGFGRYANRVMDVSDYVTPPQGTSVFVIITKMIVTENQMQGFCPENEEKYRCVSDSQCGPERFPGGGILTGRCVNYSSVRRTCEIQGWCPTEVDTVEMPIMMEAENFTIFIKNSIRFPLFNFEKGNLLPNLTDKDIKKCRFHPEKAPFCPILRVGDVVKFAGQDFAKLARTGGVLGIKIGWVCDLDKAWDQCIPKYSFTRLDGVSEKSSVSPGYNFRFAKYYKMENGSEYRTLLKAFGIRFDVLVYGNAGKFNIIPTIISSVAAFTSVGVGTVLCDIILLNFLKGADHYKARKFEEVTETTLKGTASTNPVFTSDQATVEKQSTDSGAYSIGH
The assay can be described thus: co-IP; P2X3 receptors immunopurified from WT and CaV2.1 R192Q KI mouse trigeminal neurons, blotted with anti-Cdk5; extraction in TNE buffer (10 mM Tris-HCl pH 7.5, 150 mM NaCl, 2 mM EDTA, 100 mM NaF, 2% n-octyl beta-D-glucopyranoside, 1% NP40).

No constants are given. Whether binding was seen depends on the method and setting. In cells and extracts the contact can be indirect. Some entries that bind do so weakly or less than the wild type.

For the substance “cyclin dependent kinase 5 (from UniProt P49615 1-292) (enzyme)”, the binding entry is “binds”.

The values are drawn from article PMC2940876, “Familial hemiplegic migraine CaV2.1 channel mutation R192Q enhances ATP-gated P2X3 receptor activity of mouse sensory ganglion neurons mediating trigeminal pain” (2010).
